Assay results reported in the supplement of paper PMC4371806.
Whole data set: some 1,600 compounds, median “plate-normalized OD600 growth (mean of duplicates)” near 0.31, cut for the lowest 2% near 0.23. The list shows a part of the results.

System: Escherichia coli BW25113
Assay: plate-normalized OD600 growth (mean of duplicates) (OD600 (normalized)); higher = more growth (less inhibition)
Conditions: 10 µM
Experimental: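 E. coli BW25113 in LB (100 µl, 96-well, no shaking) was exposed to 10 µM of each compound (here the ChemBridge subset of a ~30,000-member library) and grown at 37°C for 24 h or 15°C for 48 h, in duplicate. Growth was read as OD600 and the duplicate ODs were normalized across screening plates to correct plate-to-plate variation.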

SMILES | plate-normalized OD600 growth (temperature: 15°C, 48 h) | plate-normalized OD600 growth (temperature: 37°C, 24 h)
O=C(NN1C(=O)c2ccccc2C1=O)c1cc(O)cc(O)c1 | 0.26 | 0.611
CN(C)CCNCC12CC3CC(CC(C3)C1)C2 | 0.248 | 0.617
Cc1ccc(OCCSc2nc(C)cc(=O)[nH]2)cc1 | 0.241 | 0.624
Cc1cc(C)c(N2CCC(=O)N2)c(C)c1 | 0.23 | 0.617
CCC(C)NC(=O)C(=O)Nc1ccccc1OC (stereo not given) | 0.259 | 0.616
CC(C)(C)NS(=O)(=O)c1ccccc1[N+](=O)[O-] | 0.251 | 0.613
N#CC1=C(N)OC2=C(C(=O)CC(c3ccccc3)C2)C1c1ccsc1 (stereo not given) | 0.25 | 0.622
COc1ccc2c(Cl)c(C(=O)N3CCCCC3)sc2c1 | 0.258 | 0.657
O=C(Nc1cccc(Cl)c1)Nc1cccc2cccnc12 | 0.252 | 0.605
Nc1cc(S(=O)(=O)c2ccc(Cl)cc2)ccc1Cl | 0.244 | 0.58
Cc1ccc2c(N)c(C(=O)c3ccc([N+](=O)[O-])cc3)sc2n1 | 0.273 | 0.656
O=C(NC1C[C@@H]1c1ccccc1)[C@@H]1CC1c1ccccc1 (stereo not given in full) | 0.272 | 0.63
CC1=C(C#N)C(c2ccccc2F)C2=C(CCCC2=O)N1 (stereo not given) | 0.244 | 0.606
CC1CCC(NCCN2CCCCC2)CC1 (stereo not given) | 0.275 | 0.656
NC1CCCc2c1[nH]c1ccc([N+](=O)[O-])cc21 (stereo not given) | 0.173 | 0.552
CC(=O)c1ccc(S(=O)(=O)N2CCOCC2)cc1 | 0.244 | 0.643
O=[N+]([O-])C1=C(Nc2ccccc2O)CS(=O)(=O)C1 | 0.241 | 0.621
O=C(C(c1ccccc1)c1ccccc1)N1CCCC1 | 0.262 | 0.596
Cc1ccc(-c2csc(C(C#N)=Cc3ccc(N(C)C)cc3)n2)cc1 | 0.235 | 0.626
O=[N+]([O-])c1ccc(-c2nnc(-c3ccccc3Cl)o2)cc1 | 0.244 | 0.601
Cc1ccc2c(c1)NC(c1cccs1)C1=C(CC(C)(C)CC1=O)N2 (stereo not given) | 0.241 | 0.635
N#C/C(=C\c1ccc(Br)o1)c1nc(-c2ccccc2)cs1 | 0.246 | 0.6
CC(C)(C)S(=O)(=O)c1cccc(S(=O)(=O)C(C)(C)C)c1 | 0.259 | 0.612
O=[N+]([O-])c1cccc(C2NCCc3c2[nH]c2ccccc32)c1 (stereo not given) | 0.248 | 0.602
Clc1ccccc1N1CCN(Cc2ccc(Br)o2)CC1 | 0.245 | 0.606
CCC(O)C#CC(C)(O)CCC=C(C)C (stereo not given) | 0.245 | 0.606
CCN(CC)S(=O)(=O)C1CCS(=O)(=O)C1 (stereo not given) | 0.242 | 0.611
Cc1cccc(C2NCCc3c2[nH]c2ccccc32)c1 (stereo not given) | 0.244 | 0.606

Eleven neighbouring records out of the list so far, quoted:
SMILES | plate-normalized OD600 growth (temperature: 15°C, 48 h) | plate-normalized OD600 growth (temperature: 37°C, 24 h)
CN(C)CCNCC12CC3CC(CC(C3)C1)C2 | 0.248 | 0.617
Cc1ccc(OCCSc2nc(C)cc(=O)[nH]2)cc1 | 0.241 | 0.624
Cc1cc(C)c(N2CCC(=O)N2)c(C)c1 | 0.23 | 0.617
CCC(C)NC(=O)C(=O)Nc1ccccc1OC (stereo not given) | 0.259 | 0.616
CC(C)(C)NS(=O)(=O)c1ccccc1[N+](=O)[O-] | 0.251 | 0.613
N#CC1=C(N)OC2=C(C(=O)CC(c3ccccc3)C2)C1c1ccsc1 (stereo not given) | 0.25 | 0.622
COc1ccc2c(Cl)c(C(=O)N3CCCCC3)sc2c1 | 0.258 | 0.657
O=C(Nc1cccc(Cl)c1)Nc1cccc2cccnc12 | 0.252 | 0.605
Nc1cc(S(=O)(=O)c2ccc(Cl)cc2)ccc1Cl | 0.244 | 0.58
Cc1ccc2c(N)c(C(=O)c3ccc([N+](=O)[O-])cc3)sc2n1 | 0.273 | 0.656
O=C(NC1C[C@@H]1c1ccccc1)[C@@H]1CC1c1ccccc1 (stereo not given in full) | 0.272 | 0.63

Carrying on:

SMILES | plate-normalized OD600 growth (temperature: 15°C, 48 h) | plate-normalized OD600 growth (temperature: 37°C, 24 h)
Cc1occc1C(=O)NCc1ccccc1 | 0.25 | 0.62
O=C(O)c1cccc(Nc2nc(-c3ccncc3)cs2)c1 | 0.262 | 0.629
COc1ccccc1C1C(C#N)=C(N)Oc2cc(O)c(Cl)cc21 (stereo not given) | 0.261 | 0.618
Brc1ccc(CN2CCN(c3ccccn3)CC2)cc1 | 0.267 | 0.614
O=[N+]([O-])c1ccc(N2CCN(Cc3ccc(Br)s3)CC2)cc1 | 0.242 | 0.58
COc1ccc(N2C(=O)CCc3c(-c4ccccc4)cc(N(C)C)cc32)cc1 | 0.236 | 0.647
OC1CCN(Cc2ccc3c(c2)OCO3)CC1 | 0.261 | 0.606
Cc1ccc(S(=O)(=O)NCCCN2CCOCC2)cc1 | 0.248 | 0.631
Cc1cc(C)n(S(=O)(=O)c2ccc(Cl)cc2)n1 | 0.251 | 0.634
CCN(CC)S(=O)(=O)c1cccc(C(=O)NCc2ccccc2)c1 | 0.254 | 0.636
CC(C)=CCCC(C)CN1CCN(CCOCCO)CC1 (stereo not given) | 0.281 | 0.636
c1nc(NC2CCCCC2)c2c3c(sc2n1)CCCC3 | 0.258 | 0.626
COc1ccc(COCC(O)CN2CCCCC2)cc1OC (stereo not given) | 0.245 | 0.615
Cc1n[nH]c(C)c1CCCCOc1ccc(Br)cc1 | 0.216 | 0.601
CC(CC#CCN1CCCC1)OCCC#N (stereo not given) | 0.244 | 0.619
O=[N+]([O-])c1ccc2nc(N3CCOCC3)sc2c1 | 0.234 | 0.626
Nc1nnc(-c2ccc(F)cc2)s1 | 0.259 | 0.63
CC(C)(O)C#Cc1ccc(C(=O)N2CCC(Cc3ccccc3)CC2)cc1 | 0.244 | 0.622
CCOC(=O)N1CCN(c2cc(N3CCCCC3)c(F)cc2[N+](=O)[O-])CC1 | 0.259 | 0.654
O=C1CCC(C(=O)N2CCN(Cc3ccccc3)CC2)N1 (stereo not given) | 0.267 | 0.661
NS(=O)(=O)c1ccc(NC(=O)c2ccccc2Br)cc1 | 0.242 | 0.641
CCCOc1ccc(N2C(=O)CC(Nc3ccc(OC)cc3)C2=O)cc1 (stereo not given) | 0.235 | 0.593
COc1ccc(-n2cccc2C=O)cc1 | 0.253 | 0.613
Ic1ccc(NCc2cn3ccccc3n2)cc1 | 0.248 | 0.617
N#C/C(=C\c1ccccc1F)c1nc(-c2cccs2)cs1 | 0.252 | 0.662
c1ccc2sc(-c3ccc4c(c3)OCO4)nc2c1 | 0.241 | 0.578
c1ccc(Nc2n[nH]nc2-c2ccccc2)cc1 | 0.239 | 0.64
